This is one part of the list.
Experiments:
Test in all cases: log2 fold change, soluble protein after heating vs DMSO (PISA); higher = thermal stabilisation; K562 cells, 10 uM, 30 min; active = over 0.2 and 3.5 SD of the protein, either way, in both replicates (recomputed)
[1] = compound: Cc1ccc(NC(=O)c2ccc(CN3CC[C@H](N(C)C)C3)c(C(F)(F)F)c2)cc1Nc1nccc(-c2cncnc2)n1 [bafetinib]
Outline: (§1)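 For each measurement, 10 μM compound was applied for 30 min to K562 cells at 2×10^6 cells/mL. Aliquots were heated for 3 min across 48°C-58°C, pooled, and extracted in PBS with 0.5% NP-40 at 4°C; the supernatant after 21,000xg for 90 min was soluble protein. This was quantified by TMTpro 16plex LC-MS/MS with channel sums equalised, and thermal stability was reported relative to control samples from duplicates, on a log2 fold-change scale.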

Sequences of proteins named here, by UniProt entry; tags and fusion partners are left off. A change or cut given only in a name is not applied to a line headed by its entry.
UniProt P46019: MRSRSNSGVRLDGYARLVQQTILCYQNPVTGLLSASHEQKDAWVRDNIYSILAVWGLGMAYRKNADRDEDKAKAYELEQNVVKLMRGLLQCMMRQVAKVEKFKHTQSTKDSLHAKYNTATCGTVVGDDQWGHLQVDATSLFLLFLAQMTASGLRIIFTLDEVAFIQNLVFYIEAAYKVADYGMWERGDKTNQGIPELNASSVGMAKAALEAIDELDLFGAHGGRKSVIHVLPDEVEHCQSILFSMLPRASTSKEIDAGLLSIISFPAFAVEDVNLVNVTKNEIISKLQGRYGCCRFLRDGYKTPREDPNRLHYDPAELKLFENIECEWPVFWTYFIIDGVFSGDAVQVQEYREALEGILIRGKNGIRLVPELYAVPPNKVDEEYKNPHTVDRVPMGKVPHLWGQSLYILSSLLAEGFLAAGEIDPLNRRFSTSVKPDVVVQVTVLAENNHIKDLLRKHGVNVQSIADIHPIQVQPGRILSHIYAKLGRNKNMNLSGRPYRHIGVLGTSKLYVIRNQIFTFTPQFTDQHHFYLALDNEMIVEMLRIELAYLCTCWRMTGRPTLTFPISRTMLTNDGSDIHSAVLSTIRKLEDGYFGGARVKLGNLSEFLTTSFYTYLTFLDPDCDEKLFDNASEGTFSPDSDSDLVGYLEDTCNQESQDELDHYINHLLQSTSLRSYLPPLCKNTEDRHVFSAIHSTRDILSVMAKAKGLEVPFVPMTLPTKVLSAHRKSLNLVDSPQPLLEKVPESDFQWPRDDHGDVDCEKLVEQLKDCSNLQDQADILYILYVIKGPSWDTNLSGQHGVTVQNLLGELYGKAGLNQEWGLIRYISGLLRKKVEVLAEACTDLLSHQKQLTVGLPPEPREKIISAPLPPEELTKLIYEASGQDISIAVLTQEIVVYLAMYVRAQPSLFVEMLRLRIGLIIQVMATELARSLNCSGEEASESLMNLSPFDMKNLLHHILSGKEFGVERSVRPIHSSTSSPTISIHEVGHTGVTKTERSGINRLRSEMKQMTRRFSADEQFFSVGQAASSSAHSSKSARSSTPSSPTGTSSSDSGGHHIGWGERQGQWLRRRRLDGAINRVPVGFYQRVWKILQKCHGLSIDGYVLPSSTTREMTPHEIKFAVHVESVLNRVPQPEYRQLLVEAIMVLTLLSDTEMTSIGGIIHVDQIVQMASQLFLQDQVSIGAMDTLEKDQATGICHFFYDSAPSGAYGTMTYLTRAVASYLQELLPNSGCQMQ
UniProt Q9NRX4: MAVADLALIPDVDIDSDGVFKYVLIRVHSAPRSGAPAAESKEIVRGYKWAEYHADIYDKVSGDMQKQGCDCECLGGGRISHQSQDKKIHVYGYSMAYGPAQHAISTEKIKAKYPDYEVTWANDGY
UniProt P07205: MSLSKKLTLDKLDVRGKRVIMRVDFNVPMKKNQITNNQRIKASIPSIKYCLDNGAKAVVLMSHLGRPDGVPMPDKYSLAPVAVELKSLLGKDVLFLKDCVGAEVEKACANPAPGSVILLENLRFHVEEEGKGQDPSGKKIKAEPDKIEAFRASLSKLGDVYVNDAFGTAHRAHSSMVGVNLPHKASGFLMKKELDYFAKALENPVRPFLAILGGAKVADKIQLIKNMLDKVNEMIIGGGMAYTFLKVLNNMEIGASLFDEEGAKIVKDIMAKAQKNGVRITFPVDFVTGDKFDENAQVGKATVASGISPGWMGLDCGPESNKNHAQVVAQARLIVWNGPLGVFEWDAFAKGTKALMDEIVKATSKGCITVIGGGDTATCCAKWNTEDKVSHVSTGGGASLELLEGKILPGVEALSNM
UniProt P16885: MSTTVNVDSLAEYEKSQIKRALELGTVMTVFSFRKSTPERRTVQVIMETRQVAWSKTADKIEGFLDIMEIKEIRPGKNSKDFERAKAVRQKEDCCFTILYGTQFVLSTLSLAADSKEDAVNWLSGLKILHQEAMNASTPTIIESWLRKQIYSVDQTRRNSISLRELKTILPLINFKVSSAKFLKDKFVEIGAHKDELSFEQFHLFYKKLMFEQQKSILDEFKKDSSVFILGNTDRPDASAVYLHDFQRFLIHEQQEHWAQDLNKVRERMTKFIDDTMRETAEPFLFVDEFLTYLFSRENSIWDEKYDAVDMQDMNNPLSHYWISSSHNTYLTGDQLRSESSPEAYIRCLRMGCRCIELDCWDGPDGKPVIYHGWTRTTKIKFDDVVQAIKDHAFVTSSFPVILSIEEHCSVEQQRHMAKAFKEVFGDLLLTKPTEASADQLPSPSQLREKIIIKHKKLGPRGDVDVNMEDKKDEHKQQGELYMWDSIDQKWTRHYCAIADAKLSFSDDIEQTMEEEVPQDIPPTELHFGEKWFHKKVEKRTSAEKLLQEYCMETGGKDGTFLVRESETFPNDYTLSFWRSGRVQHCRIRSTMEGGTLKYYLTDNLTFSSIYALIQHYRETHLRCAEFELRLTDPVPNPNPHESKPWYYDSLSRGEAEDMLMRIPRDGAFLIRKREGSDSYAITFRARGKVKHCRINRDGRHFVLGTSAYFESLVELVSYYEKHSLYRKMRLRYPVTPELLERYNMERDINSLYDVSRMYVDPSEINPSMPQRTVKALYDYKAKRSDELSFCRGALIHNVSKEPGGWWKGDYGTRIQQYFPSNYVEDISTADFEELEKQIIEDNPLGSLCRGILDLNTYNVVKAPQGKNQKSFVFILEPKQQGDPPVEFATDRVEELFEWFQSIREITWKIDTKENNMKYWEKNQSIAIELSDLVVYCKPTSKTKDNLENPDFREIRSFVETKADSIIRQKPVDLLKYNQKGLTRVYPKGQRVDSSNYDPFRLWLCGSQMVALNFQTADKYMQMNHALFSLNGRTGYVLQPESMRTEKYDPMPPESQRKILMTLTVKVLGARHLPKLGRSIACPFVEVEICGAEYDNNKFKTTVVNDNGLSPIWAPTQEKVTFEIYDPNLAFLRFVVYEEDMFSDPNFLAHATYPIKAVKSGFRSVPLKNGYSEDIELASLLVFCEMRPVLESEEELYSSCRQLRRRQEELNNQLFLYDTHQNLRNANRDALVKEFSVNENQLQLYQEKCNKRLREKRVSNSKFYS
UniProt O60825: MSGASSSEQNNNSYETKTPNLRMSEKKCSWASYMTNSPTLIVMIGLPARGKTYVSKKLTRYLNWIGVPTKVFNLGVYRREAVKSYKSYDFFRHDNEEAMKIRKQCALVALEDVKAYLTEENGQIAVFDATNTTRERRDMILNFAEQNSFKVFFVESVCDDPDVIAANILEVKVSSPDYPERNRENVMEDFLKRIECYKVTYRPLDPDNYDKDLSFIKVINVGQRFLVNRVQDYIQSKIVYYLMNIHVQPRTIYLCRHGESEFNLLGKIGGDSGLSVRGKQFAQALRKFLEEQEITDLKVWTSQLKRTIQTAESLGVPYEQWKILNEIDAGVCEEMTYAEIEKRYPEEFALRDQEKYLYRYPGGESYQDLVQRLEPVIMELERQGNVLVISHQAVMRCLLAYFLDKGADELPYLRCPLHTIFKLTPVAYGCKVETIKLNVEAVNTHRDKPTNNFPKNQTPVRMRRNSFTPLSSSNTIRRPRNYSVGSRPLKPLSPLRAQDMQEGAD
UniProt Q9Y237, whole entry, looked up: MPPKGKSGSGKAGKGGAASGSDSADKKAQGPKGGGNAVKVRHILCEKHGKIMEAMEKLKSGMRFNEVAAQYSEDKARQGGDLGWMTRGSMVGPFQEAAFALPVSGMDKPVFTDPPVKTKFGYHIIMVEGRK
UniProt Q96HS1, whole entry, looked up: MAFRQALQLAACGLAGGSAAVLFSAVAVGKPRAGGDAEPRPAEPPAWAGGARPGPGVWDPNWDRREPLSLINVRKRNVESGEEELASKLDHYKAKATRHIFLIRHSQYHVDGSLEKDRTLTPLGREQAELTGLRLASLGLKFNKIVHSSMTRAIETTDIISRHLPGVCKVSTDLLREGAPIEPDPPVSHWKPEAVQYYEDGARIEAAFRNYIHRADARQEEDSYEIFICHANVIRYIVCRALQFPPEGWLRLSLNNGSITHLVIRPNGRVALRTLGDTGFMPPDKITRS
UniProt Q9Y263: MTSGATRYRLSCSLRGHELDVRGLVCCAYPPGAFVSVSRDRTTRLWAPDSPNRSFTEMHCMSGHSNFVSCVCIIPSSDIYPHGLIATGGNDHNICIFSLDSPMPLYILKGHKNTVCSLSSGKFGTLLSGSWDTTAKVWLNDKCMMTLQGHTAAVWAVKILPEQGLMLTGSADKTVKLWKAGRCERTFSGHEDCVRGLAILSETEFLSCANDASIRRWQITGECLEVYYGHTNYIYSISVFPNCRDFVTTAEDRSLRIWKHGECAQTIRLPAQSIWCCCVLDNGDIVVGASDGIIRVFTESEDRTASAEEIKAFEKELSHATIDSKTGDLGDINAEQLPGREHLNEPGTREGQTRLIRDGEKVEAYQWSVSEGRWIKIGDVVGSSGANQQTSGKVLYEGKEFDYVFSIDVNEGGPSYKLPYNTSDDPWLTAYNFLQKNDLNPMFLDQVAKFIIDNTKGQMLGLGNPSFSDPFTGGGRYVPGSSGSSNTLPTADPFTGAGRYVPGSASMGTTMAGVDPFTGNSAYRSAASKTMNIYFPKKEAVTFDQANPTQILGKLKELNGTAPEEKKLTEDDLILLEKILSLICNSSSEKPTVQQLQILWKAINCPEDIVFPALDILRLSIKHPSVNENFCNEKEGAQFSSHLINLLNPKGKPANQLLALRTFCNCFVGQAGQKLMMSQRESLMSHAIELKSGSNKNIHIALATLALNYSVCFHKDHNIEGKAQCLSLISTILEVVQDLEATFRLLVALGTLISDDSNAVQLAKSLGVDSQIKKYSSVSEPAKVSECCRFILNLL
UniProt P28328: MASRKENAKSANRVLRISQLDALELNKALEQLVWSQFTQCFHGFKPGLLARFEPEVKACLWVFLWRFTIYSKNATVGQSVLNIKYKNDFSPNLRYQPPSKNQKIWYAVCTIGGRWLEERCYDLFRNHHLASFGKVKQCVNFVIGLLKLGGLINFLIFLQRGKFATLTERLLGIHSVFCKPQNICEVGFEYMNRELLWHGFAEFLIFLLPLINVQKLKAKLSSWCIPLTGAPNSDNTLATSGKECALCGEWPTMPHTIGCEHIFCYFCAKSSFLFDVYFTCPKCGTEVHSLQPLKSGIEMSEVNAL
UniProt Q8TBX8: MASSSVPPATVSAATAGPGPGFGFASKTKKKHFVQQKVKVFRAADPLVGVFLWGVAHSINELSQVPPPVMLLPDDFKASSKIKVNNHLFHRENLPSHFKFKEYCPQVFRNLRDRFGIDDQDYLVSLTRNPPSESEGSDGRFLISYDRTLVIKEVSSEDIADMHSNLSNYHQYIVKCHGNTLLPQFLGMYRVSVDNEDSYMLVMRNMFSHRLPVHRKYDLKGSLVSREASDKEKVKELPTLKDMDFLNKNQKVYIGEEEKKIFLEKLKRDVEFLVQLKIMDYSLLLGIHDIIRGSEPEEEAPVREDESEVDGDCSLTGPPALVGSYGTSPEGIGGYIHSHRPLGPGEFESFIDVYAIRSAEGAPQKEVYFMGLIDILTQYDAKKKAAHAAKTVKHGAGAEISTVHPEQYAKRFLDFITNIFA
UniProt Q86T03: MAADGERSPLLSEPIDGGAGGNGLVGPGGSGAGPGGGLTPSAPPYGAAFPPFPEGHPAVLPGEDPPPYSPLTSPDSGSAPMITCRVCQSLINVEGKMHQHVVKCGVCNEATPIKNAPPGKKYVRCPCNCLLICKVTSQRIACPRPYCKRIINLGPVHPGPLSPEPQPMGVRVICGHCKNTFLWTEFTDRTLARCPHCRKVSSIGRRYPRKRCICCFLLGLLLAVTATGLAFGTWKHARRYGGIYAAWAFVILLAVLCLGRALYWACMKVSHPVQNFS
UniProt O95336: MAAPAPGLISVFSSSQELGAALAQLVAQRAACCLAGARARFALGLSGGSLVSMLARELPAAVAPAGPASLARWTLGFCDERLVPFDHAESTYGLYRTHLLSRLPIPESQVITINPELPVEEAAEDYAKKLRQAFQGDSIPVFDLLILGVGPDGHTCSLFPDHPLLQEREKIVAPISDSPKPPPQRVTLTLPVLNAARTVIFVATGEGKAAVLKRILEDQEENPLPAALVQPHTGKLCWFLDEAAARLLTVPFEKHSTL
UniProt Q9BZM1: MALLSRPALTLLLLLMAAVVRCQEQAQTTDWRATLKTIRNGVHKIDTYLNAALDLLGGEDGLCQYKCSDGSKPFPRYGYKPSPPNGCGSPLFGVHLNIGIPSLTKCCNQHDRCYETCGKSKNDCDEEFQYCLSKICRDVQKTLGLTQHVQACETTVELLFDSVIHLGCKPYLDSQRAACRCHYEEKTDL
UniProt O00628: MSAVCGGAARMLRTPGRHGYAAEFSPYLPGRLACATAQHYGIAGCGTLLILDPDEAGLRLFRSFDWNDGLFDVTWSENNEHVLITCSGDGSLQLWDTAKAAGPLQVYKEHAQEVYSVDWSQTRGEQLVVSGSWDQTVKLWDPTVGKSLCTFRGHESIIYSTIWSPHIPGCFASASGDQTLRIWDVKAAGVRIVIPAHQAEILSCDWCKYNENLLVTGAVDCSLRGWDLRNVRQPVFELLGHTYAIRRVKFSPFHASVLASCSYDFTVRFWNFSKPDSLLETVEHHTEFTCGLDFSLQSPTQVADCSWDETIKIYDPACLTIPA

[2] = compound: Cc1cccc(CC(=O)N2CCc3c2ccc(-c2cn(C)c4ncnc(N)c24)c3F)n1
Outline: as §1

[3] = compound: Cc1cn(-c2cc(NC(=O)c3ccc(C)c(Nc4nccc(-c5cccnc5)n4)c3)cc(C(F)(F)F)c2)cn1 [nilotinib]
Outline: as §1

[4] = compound: Cc1nc(Nc2n[nH]c3c2CN(C(=O)N[C@H](CN(C)C)c2ccccc2)C3(C)C)c2sccc2n1
Outline: as §1

[5] = compound: Cc1nc(Nc2ncc(C(=O)Nc3c(C)cccc3Cl)s2)cc(N2CCN(CCO)CC2)n1 [dasatinib]
Outline: as §1

[6] = compound: Cc1ncc(-c2ccnc(Nc3ccc(S(C)(=O)=O)cc3)n2)n1C(C)C
Outline: as §1

[7] = compound: Cn1cc(-c2ccc3c(c2)CCN3C(=O)Cc2cccc(C(F)(F)F)c2)c2c(N)ncnc21
Outline: as §1

[8] = compound: Cn1cc(-c2ccc3nnc(C(F)(F)c4ccc5ncccc5c4)n3n2)cn1
Outline: as §1

[9] = compound: Cn1cncc1[C@@](N)(c1ccc(Cl)cc1)c1ccc2c(c1)c(-c1cccc(Cl)c1)cc(=O)n2C [tipifarnib]
Outline: as §1

[10] = compound: FC(F)(F)c1ccc(/C=C/c2nc(COc3ccc(CCCCn4ccnn4)cc3)co2)cc1 [mubritinib]
Outline: as §1

Target | log2 fold change [1] | log2 fold change [2] | log2 fold change [3] | log2 fold change [4] | log2 fold change [5] | log2 fold change [6] | log2 fold change [7] | log2 fold change [8] | log2 fold change [9] | log2 fold change [10]
PIGN (UniProt O95427) | inactive: -0.013 | inactive: -0.012 | inactive: 0.048 | inactive: -0.248 | inactive: 0.228 | inactive: 0.031 | inactive: -0.103 | inactive: -0.014 | inactive: 0.206 | inactive: 0.04
PHKA2 (UniProt P46019) | inactive: -0.107 | inactive: -0.037 | inactive: -0.239 | inactive: 0.119 | inactive: -0.07 | inactive: -0.157 | inactive: 0.033 | inactive: -0.051 | inactive: -0.055 | inactive: 0.082
PHPT1 (UniProt Q9NRX4) | inactive: -0.04 | inactive: -0.053 | inactive: 0.065 | inactive: -0.02 | inactive: 0.009 | inactive: -0.016 | inactive: 0.024 | inactive: 0.038 | inactive: -0.013 | inactive: -0.025
PGK2 (UniProt P07205) | inactive: 0.009 | inactive: -0.036 | inactive: 0.066 | inactive: 0.096 | inactive: 0.11 | inactive: -0.013 | inactive: -0.137 | inactive: -0.029 | inactive: -0.006 | inactive: -0.092
PLCG2 (UniProt P16885) | inactive: -0.054 | – | – | – | – | – | – | – | – | –
PFKFB2 (UniProt O60825) | inactive: 0.004 | inactive: 0.02 | inactive: -0.052 | inactive: 0.016 | inactive: -0.095 | inactive: -0.018 | inactive: 0.017 | inactive: -0.004 | inactive: 0.005 | inactive: 0.041
PIN4 isoform 2 (UniProt Q9Y237) | inactive: 0.004 | inactive: -0.019 | inactive: -0.025 | inactive: -0.028 | inactive: -0.01 | inactive: 0.006 | inactive: 0.01 | inactive: 0.042 | inactive: -0.022 | inactive: 0.016
PHLDB1 isoform 2 (UniProt Q86UU1) | inactive: -0.112 | inactive: 0.117 | inactive: 0.136 | inactive: -0.265 | inactive: -0.073 | inactive: -0.128 | inactive: 0.061 | inactive: 0.016 | inactive: 0.057 | inactive: 0.14
PIK3R2 (UniProt O00459) | inactive: 0.095 | inactive: -0.007 | inactive: -0.1 | inactive: -0.177 | inactive: -0.094 | inactive: -0.089 | inactive: -0.068 | inactive: 0.027 | inactive: 0.028 | inactive: -0.025
PIEZO1 (UniProt Q92508) | inactive: -0.016 | inactive: -0.115 | inactive: -0.009 | inactive: 0.115 | inactive: 0.013 | inactive: 0.023 | inactive: 0.016 | inactive: -0.024 | inactive: 0.05 | inactive: 0.024
PGK1 (UniProt P00558) | inactive: 0.01 | inactive: -0.01 | inactive: 0.061 | inactive: 0.018 | inactive: -0.018 | inactive: -0.002 | inactive: 0.066 | inactive: 0.011 | inactive: -0.038 | inactive: 0.037
PLCH1 (UniProt Q4KWH8) | inactive: 0.059 | inactive: -0.042 | inactive: -0.128 | inactive: -0.029 | inactive: 0.01 | inactive: 0.005 | inactive: -0.03 | inactive: 0.055 | inactive: 0.03 | inactive: -0.008
PGAM5 (UniProt Q96HS1) | inactive: 0.016 | inactive: -0.034 | inactive: -0.038 | inactive: 0.114 | inactive: 0.068 | inactive: 0.043 | inactive: -0.055 | inactive: -0.126 | inactive: 0.03 | inactive: -0.048
PIGU (UniProt Q9H490) | inactive: -0.058 | inactive: 0.052 | inactive: -0.058 | inactive: -0.01 | inactive: -0.053 | inactive: -0.054 | inactive: -0.002 | inactive: 0.016 | inactive: 0.057 | inactive: 0.066
PLAA (UniProt Q9Y263) | inactive: 0.034 | inactive: 0.01 | inactive: -0.012 | inactive: -0.015 | inactive: -0.078 | inactive: -0.01 | inactive: 0.014 | inactive: -0.017 | inactive: -0.056 | inactive: 0.107
PEX2 (UniProt P28328) | inactive: -0.183 | inactive: 0.034 | inactive: -0.083 | inactive: 0.028 | inactive: 0.041 | inactive: 0.042 | inactive: 0.041 | inactive: 0.008 | inactive: -0.06 | inactive: -0.02
PLA2G15 (UniProt Q8NCC3) | inactive: -0.175 | inactive: 0.05 | inactive: -0.001 | inactive: -0.025 | inactive: -0.036 | inactive: -0.028 | inactive: 0.002 | inactive: 0.09 | inactive: 0.084 | inactive: -0.05
PGM2L1 (UniProt Q6PCE3) | inactive: -0.059 | inactive: 0 | inactive: 0.056 | inactive: -0.044 | inactive: 0.034 | inactive: -0.007 | inactive: 0.005 | inactive: 0.01 | inactive: 0.012 | inactive: 0.119
PIK3CB (UniProt P42338) | inactive: -0.075 | inactive: 0.028 | inactive: -0.084 | inactive: -0.056 | inactive: -0.209 | inactive: 0.034 | inactive: -0.002 | inactive: 0.049 | inactive: -0.105 | inactive: 0.037
PIP4P2 (UniProt Q8N4L2) | inactive: -0.083 | inactive: -0.111 | inactive: 0.013 | inactive: -0.003 | inactive: 0.055 | inactive: -0.026 | inactive: -0.03 | inactive: 0.014 | inactive: 0.024 | inactive: 0.005
PFDN6 (UniProt O15212) | inactive: -0.01 | inactive: 0.016 | inactive: -0.004 | inactive: 0.004 | inactive: 0.046 | inactive: 0.017 | inactive: 0.007 | inactive: 0.039 | inactive: -0.002 | inactive: 0.019
PLBD2 (UniProt Q8NHP8) | inactive: -0.173 | inactive: -0.056 | inactive: -0.011 | inactive: 0.024 | inactive: -0.013 | inactive: -0.052 | inactive: 0.017 | inactive: 0.044 | inactive: 0.093 | inactive: 0.056
PIP4K2C (UniProt Q8TBX8) | inactive: 0.663 | inactive: -0.112 | inactive: 0.354 | inactive: 0.053 | inactive: -0.042 | active: 1.25 | inactive: 0.144 | inactive: 0.568 | inactive: -0.07 | inactive: -0.084
PIP4P1 isoform 2 (UniProt Q86T03) | inactive: -0.044 | inactive: 0.102 | inactive: 0.031 | inactive: -0.004 | inactive: 0.051 | inactive: -0.016 | inactive: -0.158 | inactive: 0.01 | inactive: 0.112 | inactive: -0.037
PGAM1 (UniProt P18669) | inactive: -0.005 | inactive: -0.015 | inactive: 0.056 | inactive: -0.001 | inactive: 0.009 | inactive: -0.001 | inactive: 0 | inactive: -0.06 | inactive: -0.016 | inactive: 0.002
PGGT1B (UniProt P53609) | inactive: -0.069 | inactive: -0.024 | inactive: -0.007 | inactive: -0.059 | inactive: 0.075 | inactive: 0.009 | inactive: -0.027 | inactive: 0.004 | inactive: 0.134 | inactive: 0.062
PGLS (UniProt O95336) | inactive: 0.068 | inactive: 0.02 | inactive: 0.069 | inactive: -0.004 | inactive: -0.014 | inactive: -0.03 | inactive: 0.045 | inactive: 0.309 | inactive: 0.055 | inactive: 0.051
PGAM4 (UniProt Q8N0Y7) | inactive: -0.044 | inactive: -0.05 | inactive: 0.02 | inactive: -0.003 | inactive: 0.058 | inactive: -0.033 | inactive: 0.042 | inactive: 0.008 | inactive: 0.028 | inactive: 0.037
PLA2G12A (UniProt Q9BZM1) | inactive: -0.108 | inactive: -0.076 | inactive: -0.2 | inactive: 0.015 | inactive: -0.135 | inactive: -0.149 | inactive: -0.119 | inactive: -0.129 | inactive: 0.001 | inactive: 0.152
PEX7 (UniProt O00628) | inactive: 0.101 | inactive: -0.025 | inactive: -0.047 | inactive: 0.048 | inactive: -0.025 | inactive: -0.007 | inactive: 0.05 | inactive: 0.04 | inactive: 0.034 | inactive: 0.085

Whole records, quoted from the list. Values in the order: log2 fold change [1]	log2 fold change [2]	log2 fold change [3]	log2 fold change [4]	log2 fold change [5]	log2 fold change [6]	log2 fold change [7]	log2 fold change [8]	log2 fold change [9]	log2 fold change [10]
PFDN6 (UniProt O15212) as listed: inactive: -0.01	inactive: 0.016	inactive: -0.004	inactive: 0.004	inactive: 0.046	inactive: 0.017	inactive: 0.007	inactive: 0.039	inactive: -0.002	inactive: 0.019
PIGU (UniProt Q9H490) as listed: inactive: -0.058	inactive: 0.052	inactive: -0.058	inactive: -0.01	inactive: -0.053	inactive: -0.054	inactive: -0.002	inactive: 0.016	inactive: 0.057	inactive: 0.066

— the supplement of paper PMC10849652
